Measured values: publication doi:10.1101/2025.11.27.691040 (bioRxiv, 2025)
No constants are given. Whether binding was seen depends on the method and setting. For part of these data: Binding seen in cells or lysates may run through a third protein. Some results given as binding are weak or reduced against the parent protein; the word gives no strength. Where a sequence is shown, tags or fusion partners need not be part of it. One block for each binder: values may come before it.

Assays:
[1] = target: T1, AtVIH2, full-length, split-luciferase fusion (Arabidopsis thaliana) (UniProt F4J8C6); assay: split reporter
T1 sequence: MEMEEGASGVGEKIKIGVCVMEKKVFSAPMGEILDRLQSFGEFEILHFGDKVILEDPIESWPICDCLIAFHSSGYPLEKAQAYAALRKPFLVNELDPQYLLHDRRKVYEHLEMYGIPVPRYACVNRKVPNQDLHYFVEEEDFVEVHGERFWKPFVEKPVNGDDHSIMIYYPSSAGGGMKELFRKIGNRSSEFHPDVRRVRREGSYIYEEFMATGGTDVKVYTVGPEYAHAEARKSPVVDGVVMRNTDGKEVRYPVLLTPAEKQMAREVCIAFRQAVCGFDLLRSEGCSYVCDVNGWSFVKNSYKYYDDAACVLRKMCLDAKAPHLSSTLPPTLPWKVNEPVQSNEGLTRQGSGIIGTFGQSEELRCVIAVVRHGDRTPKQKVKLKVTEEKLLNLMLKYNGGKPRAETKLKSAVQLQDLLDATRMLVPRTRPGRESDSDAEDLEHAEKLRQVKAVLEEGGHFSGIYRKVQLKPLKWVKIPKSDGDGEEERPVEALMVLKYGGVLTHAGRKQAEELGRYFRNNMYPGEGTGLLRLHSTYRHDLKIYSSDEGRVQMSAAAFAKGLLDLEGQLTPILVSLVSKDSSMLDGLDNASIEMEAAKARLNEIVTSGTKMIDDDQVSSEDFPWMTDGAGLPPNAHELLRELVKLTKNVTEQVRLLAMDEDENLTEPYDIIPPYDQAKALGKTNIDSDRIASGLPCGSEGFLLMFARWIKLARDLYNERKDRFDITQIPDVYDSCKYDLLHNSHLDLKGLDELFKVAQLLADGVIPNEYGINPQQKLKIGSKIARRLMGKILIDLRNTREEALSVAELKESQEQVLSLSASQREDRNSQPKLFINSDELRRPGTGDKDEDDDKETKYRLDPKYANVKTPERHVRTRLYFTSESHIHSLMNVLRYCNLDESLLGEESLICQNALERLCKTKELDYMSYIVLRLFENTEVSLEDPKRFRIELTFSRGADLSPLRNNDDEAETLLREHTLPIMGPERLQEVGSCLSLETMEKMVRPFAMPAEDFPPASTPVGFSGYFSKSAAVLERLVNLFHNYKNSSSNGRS

[2] = target: T2, AtCKA1 (residues 76-409) with C-terminal 6xHis tag (Arabidopsis thaliana) (UniProt Q08467); assay: crystal structure
T2 sequence: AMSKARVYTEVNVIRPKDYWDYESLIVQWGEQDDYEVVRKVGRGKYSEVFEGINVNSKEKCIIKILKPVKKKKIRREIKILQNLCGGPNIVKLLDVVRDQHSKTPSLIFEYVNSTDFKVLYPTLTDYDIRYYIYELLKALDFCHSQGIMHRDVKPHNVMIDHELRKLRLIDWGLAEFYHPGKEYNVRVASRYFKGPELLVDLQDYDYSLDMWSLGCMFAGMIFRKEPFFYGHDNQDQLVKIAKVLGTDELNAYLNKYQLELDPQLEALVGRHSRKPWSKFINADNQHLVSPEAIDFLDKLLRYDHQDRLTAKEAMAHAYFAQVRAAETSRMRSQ

[3] = target: AtCKB1 (residues 95-287), untagged (Arabidopsis thaliana) (UniProt P40228); assay: crystal structure
[4] = target: T2, AtCKA1 (residues 76-409) with C-terminal 6xHis tag (Arabidopsis thaliana); assay: pull-down
[5] = target: T2, AtCKA1 (residues 76-409) with C-terminal 6xHis tag (Arabidopsis thaliana); assay: SEC-MALS

binding [1]: no binding
B1: Cluc-AtCKA4 (enzyme, UniProt O64816 56-432)
chain: ASLYRQHLRNQQQQHQQQQQSRVKEKSETLAQKIGKSIRRAGAPSKARVYADVNVVRPKDYWDYESLAVQWGVQDDYEVVRKVGRGKYSEVFEGIHATDNEKCVIKILKPVKKKKIKREIKILQNLCGGPNIVKLLDIVRDQQSKTPSLIFEHVNNKDFKVLYPTLSDYDVRYYIFELLKALDFCHSRGIMHRDVKPHNVMIDHEQRKLRLIDWGLAEFYHPGKEYNVRVASRYFKGPELLVDLQDYDYSLDLWSLGCMFAGMIFRKEPFFYGHDNYDQLVKIAKVLGTDELNAYLNKYRIELDPNLTSLVGRHSRKPWTKFINSENQHLAVPEAVDFVDKLLRYDHQERPTAKEAMAHPYFYPIRNAESSRTPRSQ

binding [1]: binds
B2: AtCKA1, full-length, split-luciferase fusion (enzyme, UniProt Q08467 37-409)
chain: PILRSSIVTPTARAVSEVSGCTTIDPDFLVEISDSNQTRAMSKARVYTEVNVIRPKDYWDYESLIVQWGEQDDYEVVRKVGRGKYSEVFEGINVNSKEKCIIKILKPVKKKKIRREIKILQNLCGGPNIVKLLDVVRDQHSKTPSLIFEYVNSTDFKVLYPTLTDYDIRYYIYELLKALDFCHSQGIMHRDVKPHNVMIDHELRKLRLIDWGLAEFYHPGKEYNVRVASRYFKGPELLVDLQDYDYSLDMWSLGCMFAGMIFRKEPFFYGHDNQDQLVKIAKVLGTDELNAYLNKYQLELDPQLEALVGRHSRKPWSKFINADNQHLVSPEAIDFLDKLLRYDHQDRLTAKEAMAHAYFAQVRAAETSRMRSQ

binding [2]: binds
binding [3]: binds
binding [4]: binds
B3: AtCKB1 (residues 95-287), untagged (domain or fragment, Arabidopsis thaliana, UniProt P40228 95-287, looked up)
chain: DGEDTSWISWFCNLRGNEFFCEVDDDYIQDDFNLCGLSSLVPYYEYALDLILDVESSQGEMFTEEQNELIESAAEMLYGLIHARYILTSKGLAAMLDKYKNYDFGRCPRVYCCGQPCLPVGQSDLPRSSTVKIYCPKCEDIYYPRSKYQGNIDGAYFGTTFPHLFLMTYGHLKPAKATQNYVQRVFGFKLHKP

binding [5]: no binding (tested: 5 mg/mL injected)
B4: AtCKA1 (residues 76-409) with C-terminal 6xHis tag (enzyme, UniProt Q08467 76-409)
chain: T2 sequence
